## Primary screen of a compound library

Mtb growth Cornell: 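Whole-cell assay for inhibitors of Mycobacterium tuberculosis growth, labelled Cornell in the record; the read-out is not stated. The concentration is filed as 10 mM, unlikely as a test dose, so the dose is not known. The record gives no direction; compounds strong in two other growth screens of this library score well above the rest, so higher reads as stronger inhibition. Size under these conditions: about 53,000 compounds, about 900 of them at 50% or above in at least one test.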
Mtb heat-shock: 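Assay on Mycobacterium tuberculosis, filed only as a heat shock assay from Cornell; the read-out is not stated. The concentration is filed as 10 mM, unlikely as a test dose, so the dose is not known. Higher reads as stronger inhibition (inferred: compounds with an IC50 in retests scored well above the rest). Size under these conditions: about 69,000 compounds, about 930 of them at 50% or above in at least one test.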

The filed quantity is “Percent Effect” (%). The controls that fix the scale are not given in the record; negative values are as filed. The compounds are a random part of those screened. A dash means the value is not listed here; it may have been measured.

compound,Mtb growth Cornell,Mtb heat-shock
O=C(O)C(F)(F)F.O=C(O)C(F)(F)F.[H][C@@]12CCN(Cc3ccccn3)C[C@]1(C(=O)NCc1ccco1)CCO2,10.27,-21.49
COc1ccc2cc(C(=O)N3CCCCC3Cn3cccn3)[nH]c2c1 (stereo unspecified),-3.887,1.749
Cc1ncc(CN2CCCC2)c2cc(C(=O)c3ccc(Br)cc3)oc12.Cl,13.52,7.227
CC(C)C(Sc1nnnn1-c1ccccc1)C(=O)NCc1cccnc1 (stereo unspecified),7.758,-14.32
O=C1CCCC2=C1C(c1ccccc1F)Nc1nonc1N2 (stereo unspecified),22.57,-20.35
Cc1ccc2c(c1)C(=O)CC1(CCN(Cc3ccccc3)CC1)O2,19.25,18.97
CN1CC2(CCCN(C(=O)Cc3cccc(O)c3)C2)OC1=O (stereo unspecified),-,6.352
Cc1cc(NC(=O)CN2CCOC(Cn3cccn3)C2)n(C)n1 (stereo unspecified),-,4.132
CN(C)CC1CSCCCN1S(=O)(=O)Cc1cccc(F)c1 (stereo unspecified),22.12,-7.794
c1ccc(-c2nc3c(c(NCCc4c[nH]cn4)n2)CCNC3)cc1,96.35,103.9
Cc1nonc1OCCNC(=O)COc1ccc(F)cc1F,26.66,27.26
O=C1CCC2(CCCN(C(=O)c3cccs3)C2)N1 (stereo unspecified),-,11.53
c1csc(N2CCCN(Cc3nc(C4CC4)no3)CC2)n1,-19.35,19.64
O=C(NCCc1ccsc1)c1ccoc1,25.74,18.78
Cc1noc(C)c1CN1CCCC2(C1)CN(Cc1nccn1C)CCO2.O=C(O)C(F)(F)F.O=C(O)C(F)(F)F (stereo unspecified),18.29,-22.97
O=C1CCC(C(=O)N2CCOC(Cc3ccc(F)cc3)C2)=NN1 (stereo unspecified),-21.64,12.5
Cc1ccccc1CNCC(O)c1ccc(OC(C)C)cc1 (stereo unspecified),-,-38.77
CCc1nccn1CCC(=O)N1CCCC1c1cncc(NC)n1 (stereo unspecified),-11.69,6.661
Cn1c(=O)c2cc(C(=O)NCc3ccncc3)ccc2n(C)c1=O,-5.374,-0.1497
CS(=O)(=O)N1CCCC12CCCN(C(=O)c1ccc3[nH]ccc3c1)C2 (stereo unspecified),20.54,-2.62
COc1cccc(CC(=O)N2CCCN(c3ccnc(C)c3)CC2)c1,-0.5722,1.473
CC(=O)c1c(F)cccc1NCC(O)C(C)(C)C (stereo unspecified),8.688,-28.79
Cc1cc(S(=O)(=O)N2CCCN3CCCC3C2)ccc1F (stereo unspecified),18.38,4.656
CC(C)(O)CN1CCN(C(=O)c2sccc2C#N)CC1,-9.882,4.022
CCOc1ccc(S(=O)(=O)N(CCOC)Cc2ccoc2)cc1F,-4.799,-0.1315
[H][C@@]12CCCN1C[C@H](CCSC)N(Cc1cnn(CC)c1C)C2,-25.49,-10.08
CC(C)NC(=O)NCCn1nc(C(F)(F)F)n(C)c1=O,-3.989,5.404
CCCOC(=O)N1CCCC2(CCN(Cc3cccc(C#N)c3)C2)C1 (stereo unspecified),37.07,-1.689
COc1ccc2c(c1)OCC(CNC1CCc3ncnn3C1)=C2 (stereo unspecified),-2.09,-10.05
CCn1ccnc1CN1CCCC1Cn1cc(C)cn1 (stereo unspecified),-,89.45
CCN(CC)c1nc2ccsc2c(=O)n1CCC(=O)NCc1cccs1,19.79,-0.8542
N#Cc1cc(F)c(NCCc2cccnc2)c(F)c1,33.57,-16.23
Cc1cc(NC(=O)Cn2ncc(SCC(N)=O)c(Cl)c2=O)ccc1Br,45.41,12.35
COCCN(C)C(C(=O)O)c1cc(Cl)ccc1OC (stereo unspecified),4.245,-4.594
Cc1nc(C(C)C)sc1C(=O)N1CCN(C2CN3CCC2CC3)CC1 (stereo unspecified),-27.95,0.6015
Cc1nc(CN2CCCC(N(C)c3cnc4ccccc4n3)C2)no1 (stereo unspecified),20.38,68.17
FC(F)CN1CCC(NCCc2ccc(-n3cccn3)cc2)CC1,12.71,-22.45
COc1ccccc1CC(C)N(C)S(C)(=O)=O (stereo unspecified),-5.955,-19.07
O=C(O)C(F)(F)F.O=C(c1ccoc1)N1CCC2(CC1)COC(COc1ccccn1)C2 (stereo unspecified),17.8,-37.43
Nc1nc2c(c(NC(=O)Nc3cccc(Cl)c3)n1)CCCC2,-41.99,-6.525
CC(=O)N1CCC2(C1)CN(S(=O)(=O)c1ccccc1)C2,13.22,-4.472
CCCN(CCC)S(=O)(=O)N(C)Cc1ccncc1,-,-15.17
Cc1ncc2c(c1CNC(=O)C1(C)CCCCO1)CCNC2 (stereo unspecified),16.09,4.935
O=C(O)C(F)(F)F.[H][C@@]12CCN(Cc3ccc(F)c(F)c3)[C@]1([H])CC[C@@H](C(=O)NCC1CC1)O2,-,-24.74
Cc1nc(CN2CCCC(NCCCOc3ccc(F)cc3)C2)no1 (stereo unspecified),-,-10.79
COCC1COCCC12CCN(C(=O)CC1Cc3ccccc3C1)CC2 (stereo unspecified),-17.72,-19.05

For reference, 4 entries once more:

compound	Mtb growth Cornell	Mtb heat-shock
Cc1nc(CN2CCCC(N(C)c3cnc4ccccc4n3)C2)no1 (stereo unspecified)	20.38	68.17
O=C(O)C(F)(F)F.O=C(O)C(F)(F)F.[H][C@@]12CCN(Cc3ccccn3)C[C@]1(C(=O)NCc1ccco1)CCO2	10.27	-21.49
Cc1ccccc1CNCC(O)c1ccc(OC(C)C)cc1 (stereo unspecified)	-	-38.77
CN1CC2(CCCN(C(=O)Cc3cccc(O)c3)C2)OC1=O (stereo unspecified)	-	6.352

From ChEMBL document CHEMBL3988442, “University of Dundee, Small-Polar-MMV Screening Library” (2021).